Experiment [1] addresses T1, GFP-1xRLLL fusion (GFP fused to one copy of the 22-residue APPY peptide) (chicken).
T1 sequence: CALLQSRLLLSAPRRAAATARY
Nature of the experiment: co-IP.

Chains of the proteins cited; added tags and fusions are not shown.
UniProt P10591: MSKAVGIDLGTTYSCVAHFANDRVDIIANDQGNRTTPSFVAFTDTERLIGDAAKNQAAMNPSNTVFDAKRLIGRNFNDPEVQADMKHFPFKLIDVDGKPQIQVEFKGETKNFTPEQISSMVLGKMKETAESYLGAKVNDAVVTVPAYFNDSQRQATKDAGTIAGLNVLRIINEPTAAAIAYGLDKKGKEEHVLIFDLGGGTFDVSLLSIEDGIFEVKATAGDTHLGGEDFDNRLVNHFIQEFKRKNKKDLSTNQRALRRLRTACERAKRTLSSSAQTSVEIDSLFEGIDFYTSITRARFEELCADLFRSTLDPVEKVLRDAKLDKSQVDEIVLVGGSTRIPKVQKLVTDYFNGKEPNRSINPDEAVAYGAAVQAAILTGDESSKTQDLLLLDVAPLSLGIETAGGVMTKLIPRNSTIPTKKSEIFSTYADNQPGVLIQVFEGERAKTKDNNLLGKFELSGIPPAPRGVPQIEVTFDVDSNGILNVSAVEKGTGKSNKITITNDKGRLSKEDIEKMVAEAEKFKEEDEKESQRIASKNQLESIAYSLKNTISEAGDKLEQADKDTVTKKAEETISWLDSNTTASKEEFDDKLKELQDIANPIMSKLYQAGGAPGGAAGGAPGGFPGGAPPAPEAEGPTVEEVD
UniProt P19812: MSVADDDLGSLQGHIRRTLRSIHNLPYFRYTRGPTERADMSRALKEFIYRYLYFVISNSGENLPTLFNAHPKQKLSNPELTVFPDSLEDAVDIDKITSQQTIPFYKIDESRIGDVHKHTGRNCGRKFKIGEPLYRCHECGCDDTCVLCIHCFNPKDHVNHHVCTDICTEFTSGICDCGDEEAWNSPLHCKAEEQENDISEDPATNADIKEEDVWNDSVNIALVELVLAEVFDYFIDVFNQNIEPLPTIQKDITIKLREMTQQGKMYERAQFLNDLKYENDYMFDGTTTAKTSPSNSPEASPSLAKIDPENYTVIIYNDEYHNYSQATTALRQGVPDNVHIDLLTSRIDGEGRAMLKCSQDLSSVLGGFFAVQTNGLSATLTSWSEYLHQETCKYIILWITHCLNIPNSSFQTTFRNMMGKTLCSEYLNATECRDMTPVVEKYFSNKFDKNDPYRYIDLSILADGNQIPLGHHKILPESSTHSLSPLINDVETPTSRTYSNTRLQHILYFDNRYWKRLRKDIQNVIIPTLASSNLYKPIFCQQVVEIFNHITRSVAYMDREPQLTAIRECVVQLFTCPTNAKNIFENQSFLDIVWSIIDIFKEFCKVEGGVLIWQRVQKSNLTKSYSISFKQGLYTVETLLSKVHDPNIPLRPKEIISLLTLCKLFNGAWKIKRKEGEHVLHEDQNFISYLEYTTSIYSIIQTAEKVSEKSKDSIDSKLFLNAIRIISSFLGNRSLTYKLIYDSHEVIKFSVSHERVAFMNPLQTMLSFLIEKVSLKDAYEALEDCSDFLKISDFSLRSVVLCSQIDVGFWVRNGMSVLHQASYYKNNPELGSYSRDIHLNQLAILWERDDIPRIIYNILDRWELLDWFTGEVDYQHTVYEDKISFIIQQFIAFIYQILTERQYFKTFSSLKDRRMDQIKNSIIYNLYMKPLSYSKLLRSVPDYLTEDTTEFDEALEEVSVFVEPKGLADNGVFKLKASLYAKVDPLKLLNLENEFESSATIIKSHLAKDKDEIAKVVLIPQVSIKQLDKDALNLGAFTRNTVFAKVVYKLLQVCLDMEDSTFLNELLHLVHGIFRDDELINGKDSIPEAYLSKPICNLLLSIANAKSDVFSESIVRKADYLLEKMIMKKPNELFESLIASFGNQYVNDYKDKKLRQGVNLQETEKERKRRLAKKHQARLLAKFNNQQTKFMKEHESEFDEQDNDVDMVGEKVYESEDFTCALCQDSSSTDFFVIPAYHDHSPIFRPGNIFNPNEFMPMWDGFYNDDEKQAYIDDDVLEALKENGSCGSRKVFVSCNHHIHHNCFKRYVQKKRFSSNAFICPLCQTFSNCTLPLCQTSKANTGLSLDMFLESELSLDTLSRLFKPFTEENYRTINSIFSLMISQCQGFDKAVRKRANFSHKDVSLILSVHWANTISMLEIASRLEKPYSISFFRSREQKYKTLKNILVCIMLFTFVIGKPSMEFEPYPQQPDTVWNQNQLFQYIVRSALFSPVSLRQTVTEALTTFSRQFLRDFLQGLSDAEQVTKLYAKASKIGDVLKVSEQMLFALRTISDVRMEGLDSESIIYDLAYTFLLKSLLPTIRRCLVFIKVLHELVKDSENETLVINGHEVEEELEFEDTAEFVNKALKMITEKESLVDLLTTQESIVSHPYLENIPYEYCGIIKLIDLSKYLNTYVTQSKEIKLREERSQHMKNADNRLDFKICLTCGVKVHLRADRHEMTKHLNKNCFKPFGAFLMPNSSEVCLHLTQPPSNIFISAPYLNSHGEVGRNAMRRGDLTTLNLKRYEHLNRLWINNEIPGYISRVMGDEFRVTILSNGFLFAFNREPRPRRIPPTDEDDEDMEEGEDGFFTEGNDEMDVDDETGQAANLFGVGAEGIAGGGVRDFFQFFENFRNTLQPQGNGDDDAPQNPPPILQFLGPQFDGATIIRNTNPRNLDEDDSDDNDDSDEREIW

Experiment [2] deals with myc-tagged yeast Hsp70 homologue Ssa1 (S. cerevisiae) (UniProt P10591). Nature of the experiment: co-IP.

No constants are given. Whether binding was seen depends on the method and setting. Binding seen in cells or lysates may run through a third protein. Some entries that bind do so weakly or less than the wild type. For some assays here: Sequences can lack the tags named with a protein.

For the substance “myc-tagged yeast Hsp70 homologue Ssa1 (from UniProt P10591 1-642)”, the binding result in experiment [1] is “binds”.

As to “Ubr1-HA (from UniProt P19812 1-1950) (enzyme)”, the binding result in experiment [2] was “binds”.
